# This is one part of the list.
# B1: CLEC9a (Mus musculus), Q8BRU4 (protein)
# chain: MHAEEIYTSLQWDIPTSEASQKCQSPSKCSGAWCVVTMISCVVCMGLLATSIFLGIKFFQVSSLVLEQQERLIQQDTALVNLTQWQRKYTLEYCQALLQRSLHSGSDCSPCPHNWIQNGKSCYYVFERWEMWNISKKSCLKEGASLFQIDSKEEMEFISSIGKLKGGNKYWVGVFQDGISGSWFWEDGSSPLSDLLPAERQRSAGQICGYLKDSTLISDKCDSWKYFICEKKAFGSCI
# Assays:
# Assay in all cases: glycan array binding signal (z-score within array); higher = stronger binding
# Details in all cases: glycan notation: IUPAC condensed, linker removed
# [1] = target: Neu5Ac(a2-3)Gal(b1-3)GalNAc6S
# Procedure, shortened: (§1)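 The Consortium for Functional Glycomics database supplied 3228 glycan arrays, of which those lacking an available protein sequence were dropped. The binding signal, a within-array Z-score, was averaged across arrays of the same protein sequence and across linkers. Negative scores can be read as non-binding.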
# [2] = target: Neu5Ac(a2-3)Gal(b1-3)GlcNAc
# Procedure, shortened: as §1
# [3] = target: Neu5Ac(a2-3)Gal(b1-3)GlcNAc(b1-2)Man(a1-3)[Neu5Ac(a2-3)Gal(b1-3)GlcNAc(b1-2)Man(a1-6)]Man(b1-4)GlcNAc(b1-4)GlcNAc
# Procedure, shortened: as §1
# [4] = target: Neu5Ac(a2-3)Gal(b1-3)GlcNAc(b1-3)Gal(b1-3)GlcNAc
# Procedure, shortened: as §1
# [5] = target: Neu5Ac(a2-3)Gal(b1-3)GlcNAc(b1-3)Gal(b1-4)GlcNAc
# Procedure, shortened: as §1
# [6] = target: Neu5Ac(a2-3)Gal(b1-3)GlcNAc(b1-3)GalNAc
# Procedure, shortened: as §1
# [7] = target: Neu5Ac(a2-3)Gal(b1-3)GlcNAc6S
# Procedure, shortened: as §1
# [8] = target: Neu5Ac(a2-3)Gal(b1-3)[Fuc(a1-4)]GlcNAc
# Procedure, shortened: as §1
# [9] = target: Neu5Ac(a2-3)Gal(b1-3)[Fuc(a1-4)]GlcNAc(b1-3)Gal(b1-3)[Fuc(a1-4)]GlcNAc
# Procedure, shortened: as §1
# [10] = target: Neu5Ac(a2-3)Gal(b1-3)[Fuc(a1-4)]GlcNAc(b1-3)Gal(b1-4)[Fuc(a1-3)]GlcNAc
# Procedure, shortened: as §1
# [11] = target: Neu5Ac(a2-3)Gal(b1-3)[Neu5Ac(a2-3)Gal(b1-4)]GlcNAc
# Procedure, shortened: as §1
# [12] = target: Neu5Ac(a2-3)Gal(b1-3)[Neu5Ac(a2-6)]GalNAc
# Procedure, shortened: as §1
# Neu5Ac(a2-3)Gal(b1-4)Glc = target: Neu5Ac(a2-3)Gal(b1-4)Glc
# Procedure, shortened: as §1
# [13] = target: Neu5Ac(a2-3)Gal(b1-4)GlcNAc
# Procedure, shortened: as §1
# [14] = target: Neu5Ac(a2-3)Gal(b1-4)GlcNAc(b1-2)Man(a1-3)[GlcNAc(b1-2)Man(b1-4)GlcNAc(b1-2)Man(a1-6)]Man(b1-4)GlcNAc(b1-4)GlcNAc
# Procedure, shortened: as §1
# [15] = target: Neu5Ac(a2-3)Gal(b1-4)GlcNAc(b1-2)Man(a1-3)[Neu5Ac(a2-6)Gal(b1-4)GlcNAc(b1-2)Man(a1-6)]Man(b1-4)GlcNAc(b1-4)GlcNAc
# Procedure, shortened: as §1
# [16] = target: Neu5Ac(a2-3)Gal(b1-4)GlcNAc(b1-3)Gal(b1-3)GlcNAc
# Procedure, shortened: as §1
# [17] = target: Neu5Ac(a2-3)Gal(b1-4)GlcNAc(b1-3)Gal(b1-4)GlcNAc
# Procedure, shortened: as §1
# [18] = target: Neu5Ac(a2-3)Gal(b1-4)GlcNAc(b1-3)Gal(b1-4)GlcNAc(b1-3)Gal(b1-4)GlcNAc
# Procedure, shortened: as §1
# [19] = target: Neu5Ac(a2-3)Gal(b1-4)GlcNAc(b1-3)Gal(b1-4)[Fuc(a1-3)]GlcNAc
# Procedure, shortened: as §1
# [20] = target: Neu5Ac(a2-3)Gal(b1-4)GlcNAc(b1-3)GalNAc
# Procedure, shortened: as §1
# [21] = target: Neu5Ac(a2-3)Gal(b1-4)GlcNAc(b1-6)[Gal(b1-3)]GalNAc
# Procedure, shortened: as §1
# [22] = target: Neu5Ac(a2-3)Gal(b1-4)GlcNAc(b1-6)[Neu5Ac(a2-3)Gal(b1-3)]GalNAc
# Procedure, shortened: as §1
# [23] = target: Neu5Ac(a2-3)Gal(b1-4)GlcNAc6S
# Procedure, shortened: as §1
# [24] = target: Neu5Ac(a2-3)Gal(b1-4)[Fuc(a1-3)]GlcNAc
# Procedure, shortened: as §1
# [25] = target: Neu5Ac(a2-3)Gal(b1-4)[Fuc(a1-3)]GlcNAc(b1-3)Gal
# Procedure, shortened: as §1
# [26] = target: Neu5Ac(a2-3)Gal(b1-4)[Fuc(a1-3)]GlcNAc(b1-3)Gal(b1-4)GlcNAc
# Procedure, shortened: as §1
# [27] = target: Neu5Ac(a2-3)Gal(b1-4)[Fuc(a1-3)]GlcNAc(b1-3)Gal(b1-4)[Fuc(a1-3)]GlcNAc(b1-3)Gal(b1-4)[Fuc(a1-3)]GlcNAc
# Procedure, shortened: as §1
binder,measurement,setting,value
B1,glycan array binding signal (z-score),[1],-0.528
same,glycan array binding signal (z-score),[2],0.352
same,glycan array binding signal (z-score),[3],-0.763
same,glycan array binding signal (z-score),[4],-1.66
same,glycan array binding signal (z-score),[5],-1.01
same,glycan array binding signal (z-score),[6],-1.06
same,glycan array binding signal (z-score),[7],0.331
same,glycan array binding signal (z-score),[8],-0.871
same,glycan array binding signal (z-score),[9],0.365
same,glycan array binding signal (z-score),[10],-0.962
same,glycan array binding signal (z-score),[11],0.15
same,glycan array binding signal (z-score),[12],-0.457
same,glycan array binding signal (z-score),Neu5Ac(a2-3)Gal(b1-4)Glc,0.304
same,glycan array binding signal (z-score),[13],1.26
same,glycan array binding signal (z-score),[14],2.01
same,glycan array binding signal (z-score),[15],-0.866
same,glycan array binding signal (z-score),[16],-0.03
same,glycan array binding signal (z-score),[17],0.79
same,glycan array binding signal (z-score),[18],-1.1
same,glycan array binding signal (z-score),[19],-2.04
same,glycan array binding signal (z-score),[20],-0.825
same,glycan array binding signal (z-score),[21],-0.727
same,glycan array binding signal (z-score),[22],-0.1
same,glycan array binding signal (z-score),[23],1.55
same,glycan array binding signal (z-score),[24],-0.264
same,glycan array binding signal (z-score),[25],-1.7
same,glycan array binding signal (z-score),[26],1.4
same,glycan array binding signal (z-score),[27],0.387

# An excerpt of these results, with bars between the fields.
binder | measurement | setting | value
B1 | glycan array binding signal (z-score) | [19] | -2.04
same | glycan array binding signal (z-score) | [20] | -0.825

# From the supplement of paper PMC8728848
